From article PMC8666589
Results are given in words; binding and its absence hold for the method and conditions named. Some results given as binding are weak or reduced against the parent protein; the word gives no strength.

Amino acid sequences for entries named in this document (tags omitted). A change or cut given only in a name is not applied to a line headed by its entry. Residues count along the entry.
UniProt Q9NZQ7, residues 19-134: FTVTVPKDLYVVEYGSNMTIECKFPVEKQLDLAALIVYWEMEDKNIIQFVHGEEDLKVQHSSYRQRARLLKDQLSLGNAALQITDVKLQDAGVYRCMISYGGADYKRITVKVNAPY
UniProt P09012: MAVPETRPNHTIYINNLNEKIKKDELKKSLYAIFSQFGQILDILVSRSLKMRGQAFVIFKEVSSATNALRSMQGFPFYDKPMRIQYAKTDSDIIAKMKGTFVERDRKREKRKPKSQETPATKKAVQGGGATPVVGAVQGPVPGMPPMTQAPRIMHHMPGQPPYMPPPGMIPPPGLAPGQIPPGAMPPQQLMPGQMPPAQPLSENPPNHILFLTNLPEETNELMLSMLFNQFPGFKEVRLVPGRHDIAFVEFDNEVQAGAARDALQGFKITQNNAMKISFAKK

Target: PD-L1 (human) (UniProt Q9NZQ7)
Assay: ELISA; binding ELISA of rU1 snRNPA or variants on PD-L1; curve fitting with GraphPad Prism 8.0; done in double; details in the supplementary materials (not shown); both purified

Substance	binding
rU1 snRNPA variant I33F (from UniProt P09012 1-282)	binds
rU1 snRNPA variant Q36R (from UniProt P09012 1-282)	binds
